These results are taken from publication PMC11066878.

Amino acid sequences for entries named in this document (tags omitted). A change or cut given only in a name is not applied to a line headed by its entry. Residues count along the entry.
UniProt P25694: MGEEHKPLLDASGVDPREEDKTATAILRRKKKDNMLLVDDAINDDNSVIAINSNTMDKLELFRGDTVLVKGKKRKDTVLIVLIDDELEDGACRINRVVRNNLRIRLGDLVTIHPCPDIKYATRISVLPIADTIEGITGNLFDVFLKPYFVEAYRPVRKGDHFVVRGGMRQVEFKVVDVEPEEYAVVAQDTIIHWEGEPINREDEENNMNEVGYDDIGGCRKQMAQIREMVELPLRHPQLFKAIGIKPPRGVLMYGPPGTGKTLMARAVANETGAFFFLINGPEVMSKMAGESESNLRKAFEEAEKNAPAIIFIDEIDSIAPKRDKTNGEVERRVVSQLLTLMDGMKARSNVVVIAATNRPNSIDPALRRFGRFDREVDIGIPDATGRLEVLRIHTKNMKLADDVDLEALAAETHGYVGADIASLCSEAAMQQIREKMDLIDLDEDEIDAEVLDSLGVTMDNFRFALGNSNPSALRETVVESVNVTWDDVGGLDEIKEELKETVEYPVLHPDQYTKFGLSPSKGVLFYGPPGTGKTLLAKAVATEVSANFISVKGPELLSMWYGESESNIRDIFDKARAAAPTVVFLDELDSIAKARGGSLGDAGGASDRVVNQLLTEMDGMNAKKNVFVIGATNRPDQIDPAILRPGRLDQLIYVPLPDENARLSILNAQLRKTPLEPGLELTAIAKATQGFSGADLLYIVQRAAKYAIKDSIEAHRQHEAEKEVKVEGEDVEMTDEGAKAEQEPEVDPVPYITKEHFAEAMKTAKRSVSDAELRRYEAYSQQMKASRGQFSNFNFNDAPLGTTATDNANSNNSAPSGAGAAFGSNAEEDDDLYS
Cdc48^ΔHbYX: residues 1-832 of P25694

No constants are given. Whether binding was seen depends on the method and setting. In cells and extracts the contact can be indirect. Some binding calls cover weakened binding; strength is not graded here.

The target of assay [1] is Cdc48 ATPase (yeast (endogenous in strains isogenic to BY4741 or FY251)) (UniProt P25694). The assay can be described thus: co-IP; lysates of WT and Cdc48^ΔHbYX cells solubilised with 1% DMNG, α-Cdc48 antibody 2 h, Protein A magnetic beads, blots for cofactors.
Another assay deals with Cdc48^ΔHbYX (yeast) (UniProt P25694). Described as above.

B1: Ufd2 (enzyme, UniProt P54860 1-961)
chain: MTAIEDILQITTDPSDTRGYSLLKSEEVPQGSTLGVDFIDTLLLYQLTENEKLDKPFEYLNDCFRRNQQQKRITKNKPNAESLHSTFQEIDRLVIGYGVVALQIENFCMNGAFINYITGIVSNVNSYTDFLSQIIQRAILEGTALDLLNAVFPTLLEYCNKHVSHFDLNESVIYNNVLTIFELFVTFKPIAEIFTKIDGFFADYSCKPQDFERKTILGPILSLSPIEAAVAIRNYGDNLLRSKQQTAMIHESLQAEHKVVIDRLFFIVDKLVRGSLNSRTDMISYFAHIANKNHLRRADHPPFKELSSNGFMSNITLLLVRFSQPFLDISYKKIDKIDANYFNNPSLFIDLSGETRLNSDFKEADAFYDKNRKTADSKPNFISDCFFLTLTYLHYGLGGTLSFEEKMGSEIKALKEEIEKVKKIAANHDVFARFITAQLSKMEKALKTTESLRFALQGFFAHRSLQLEVFDFICGASTFLIRVVDPEHEFPFKQIKLPLIPDQIGVENVDNADFLRAHAPVPFKYYPEFVVEGPVNYSLYISKYQTSPIFRNPRLGSFVEFTTMVLRCPELVSNPHLKGKLVQLLSVGAMPLTDNSPGFMMDIFEHDELVNKNLLYALLDFYVIVEKTGSSSQFYDKFNSRYSISIILEELYYKIPSYKNQLIWQSQNNADFFVRFVARMLNDLTFLLDEGLSNLAEVHNIQNELDNRARGAPPTREEEDKELQTRLASASRQAKSSCGLADKSMKLFEIYSKDIPAAFVTPEIVYRLASMLNYNLESLVGPKCGELKVKDPQSYSFNPKDLLKALTTVYINLSEQSEFISAVAKDERSFNRNLFVRAVDILGRKTGLASPEFIEKLLNFANKAEEQRKADEEEDLEYGDVPDEFLDPLMYTIMKDPVILPASKMNIDRSTIKAHLLSDSTDPFNRMPLKLEDVTPNEELRQKILCFKKQKKEEAKHKASE
As for B1, the binding result (in assay [1]; with Cdc48^ΔHbYX (yeast)) was “binds” in each case.
